This is an account of results in PMC10761696, “Avapritinib-based SAR studies unveil a binding pocket in KIT and PDGFRA” (Nature Communications, 2024).

Structures are written as SMILES.

This data set is described as follows: MDCKII-MDR1 permeability assay. The following applies: dog, MDCK-MDR1, MDCKII-MDR1 (PappA→B), reference compounds, mean over routine assay runs.

As a reminder, the Papp A→B is how fast a substance crosses the layer from the apical side.

In the case of `CC(C)NCC(O)COc1ccc(CC(N)=O)cc1` (stereo not shown) [atenolol, reference compound], the Papp A→B at 2 h, 10 µM was found to be 1.1 ± 3.5 ×10⁻⁶ cm/s.
